Data on two compounds can be found in patent US20250289789A1, “REVERSIBLE LYSINE COVALENT MODIFIERS OF CDK2 AND USES THEREOF” (Terremoto Biosciences, Inc., priority 2023, published 2025).

Chains of the proteins cited; added tags and fusions are not shown.
UniProt P11802, whole entry: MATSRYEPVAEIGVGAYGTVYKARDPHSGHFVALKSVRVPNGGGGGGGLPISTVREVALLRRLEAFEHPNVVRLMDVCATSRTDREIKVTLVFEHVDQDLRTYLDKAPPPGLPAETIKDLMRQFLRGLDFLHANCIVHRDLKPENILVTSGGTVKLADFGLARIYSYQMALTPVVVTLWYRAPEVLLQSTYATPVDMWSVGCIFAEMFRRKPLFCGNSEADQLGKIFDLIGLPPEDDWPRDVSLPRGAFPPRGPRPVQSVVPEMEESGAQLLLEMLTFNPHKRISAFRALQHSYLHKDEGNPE
UniProt P24385, whole entry partner: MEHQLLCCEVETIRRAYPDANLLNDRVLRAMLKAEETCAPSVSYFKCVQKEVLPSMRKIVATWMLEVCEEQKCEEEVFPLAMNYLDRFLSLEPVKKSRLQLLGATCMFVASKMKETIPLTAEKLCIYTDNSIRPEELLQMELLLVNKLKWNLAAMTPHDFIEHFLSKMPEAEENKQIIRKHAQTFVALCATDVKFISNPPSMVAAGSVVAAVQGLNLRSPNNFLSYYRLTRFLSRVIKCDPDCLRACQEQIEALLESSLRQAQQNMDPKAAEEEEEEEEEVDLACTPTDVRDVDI

Structures were worked out from names or drawings and are uncertain. Bounds are passed on as bounds.

Test [1] deals with CDK2-NanoLuc fusion with CCNE1 in 293T or 293 cells (Homo sapiens, UniProt P24941). Kind of test: NanoBRET Target Engagement (TE) Intracellular Kinase Assay, CDK2/CCNE1. Particulars: read-out: NanoBRET-CDK2/E1 IC50, 2-hour incubation. (BRET reads energy transfer from a luciferase to a nearby fluorophore.)
Test [2] has as its target CDK4-NanoLuc fusion with CCND1 in 293T or 293 cells (Homo sapiens, UniProt P11802). Description: NanoBRET Target Engagement (TE) Intracellular Kinase Assay, CDK4/CCND1. Particulars: read-out: NanoBRET-CDK4/D1 IC50, 2-hour incubation.
In test [3] the test system is Phospho-Rb Ser807/811 in OVCAR3 cells. Kind of test: OVCAR3 Phospho-Rb Ser807/811 HTRF assay. Particulars: read-out: pRb-OVCAR3 IC50, 1 hour incubation. (In general: In TR-FRET formats the signal depends on donor and acceptor labels being close together.)

For the compound `COc1cc(O)c(C=O)c(OCC(=O)Nc2cc([C@H]3CC[C@@H](OC(=O)N4CCCN4)C3)[nH]n2)c1`, the values for the IC50 in test [1], in test [2] and in test [3] were 0.00753 µM, greater than 10 µM and 0.0947 µM, respectively.
On the same counts, the results for `COc1cc(O)c(C=O)c(CCC(=O)Nc2cc([C@H]3CC[C@@H](OC(=O)N4C5COCC4C5)C3)[nH]n2)c1` are 0.0171 µM, 2.89 µM and 0.295 µM.
